This is one part of the list. Further columns of the screen follow, without active or inactive calls. Most of these compounds were active or inconclusive in the main read-out, so they are no random draw. Potencies come from curve fits of mixed quality, noted in brackets.
Assay: qHTS Assay for Lipid Storage Modulators in Drosophila S3 Cells;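 as to cell number change: cells counted by Cell Tracker Red CMTPX staining in the red channel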
Conditions: BODIPY lipid droplet fluorescence, 18-24 h; for cell number change: measured here: cell count max response, cells fed with added oleic acid
Procedure, shortened: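 Drosophila S3 cells got compounds at several concentrations plus oleic acid (400 uM solution). Laser-scanning cytometry with 488 nm excitation read lipid droplets at 500-530 nm and cells at 575-640 nm. Percent activity was relative to 20 uM Triacsin C.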

[1] = measured here: cell number channel AC50, cells fed with added oleic acid
[2] = measured here: lipid fluorescence (Fed channel) AC50, cells fed with added oleic acid

SMILES | cell number change [%] | AC50 [1] | AC50 [2]
Nc1c(-c2ccc(Cl)cc2)cnn1C1CCS(=O)(=O)C1 (centres undefined) | 30.4 | 0.164 µM [rising, full curve, poor fit] | 
Cc1ccccc1C(=O)NCC(=O)OCCCOC(=O)CNC(=O)c1ccccc1C | 37.3 | 5.17 µM [rising, partial curve, poor fit] | 
Fc1ccc(Cn2ccc(-c3cnc(-c4ccccc4)s3)n2)cc1 |  | 2.06 µM [rising, partial curve] | 2.31 µM [rising, partial curve]
COC(=O)c1ccccc1NC(=O)NC1CCCCC1 | 11.8 | 2.06 µM [rising, partial curve] | 
N#Cc1ccc(-c2ccccc2)nc1SCCN1CCOCC1 | 21.5 |  | 1.46 µM [rising, full curve]
O=C(CCC(=O)N(CC(=O)NC1CCCC1)Cc1ccccc1Cl)Nc1nccs1 | 14.8 |  | 14.6 µM [rising, partial curve]
CC(=O)N1CCc2ccc(S(=O)(=O)N3CCc4ccccc43)cc21 | 70.8 | 4.11 µM [falling, single point] | 
COC(=O)c1[nH]c2cc(OC)c(OC)cc2c1NC(=O)c1cccc(OC)c1 | 5.84 | 2.91 µM [falling, partial curve, poor fit] | 
COCc1cc(=O)[nH]c(Nc2nc3ccccc3o2)n1 | -13.8 |  | 25.9 µM [falling, partial curve, poor fit]
CCOc1cccc2sc(=NC(=O)c3ccc(S(=O)(=O)N4CCOCC4)cc3)n(C)c12 | 0.395 |  | 3.26 µM [falling, partial curve, poor fit]
Cc1ccc(OC(=O)c2ccc3nc(C)sc3c2)cc1 |  |  | 20.6 µM [falling, single point]
CCc1ccc(/C=N/n2c(COc3ccccc3)n[nH]c2=S)cc1 | -1.39 |  | 29.1 µM [rising, single point]
CCOC(=O)c1cc(-c2cc3ccccc3o2)n[nH]1 | -12.3 |  | 
C/C(CC(=O)NC1CCCC1)=N\NC(=O)Cc1csc(N)n1 | 38.2 | 11.6 µM [rising, partial curve] | 0.0291 µM [falling, full curve, poor fit]
CCCn1c(N2CCN(C(=O)Nc3ccccc3)CC2)nc2ccccc21 | -26 |  | 9.2 µM [falling, partial curve, poor fit]
Cc1ccc(S(=O)(=O)/N=C2/NC(=O)/C(=C/c3ccncc3)S2)cc1 |  |  | 0.0092 µM [rising, full curve, poor fit]
CCOc1cc(C(=O)Nc2cccc3ncccc23)cc(OCC)c1OCC | 65 | 16.4 µM [rising, partial curve, poor fit] | 0.82 µM [rising, single point]
Cc1cc(C(=O)N(C)CC(=O)Nc2ccc(F)c(F)c2F)no1 | 16.2 |  | 23.1 µM [rising, single point]
NS(=O)(=O)c1ccc(NCc2ccccc2OCc2ccc(F)cc2)cc1 | -21 |  | 
COCc1cc(C)nc2sc(C(=O)Nc3nccs3)c(N)c12 | -2.03 |  | 

Look-ups from above:
C/C(CC(=O)NC1CCCC1)=N\NC(=O)Cc1csc(N)n1 | AC50 [2]: 0.0291 µM [falling, full curve, poor fit]
Cc1ccc(S(=O)(=O)/N=C2/NC(=O)/C(=C/c3ccncc3)S2)cc1 | AC50 [2]: 0.0092 µM [rising, full curve, poor fit]

(next part)

SMILES | cell number change [%] | AC50 [1] | AC50 [2]
Cc1c(NC(=O)CSc2ncnc3ccccc23)c(=O)n(-c2ccccc2)n1C | -2.2 | 5.17 µM [rising, single point] | 
Cc1ccc(C(=O)NC(=S)NCc2ccccc2)cc1 | -5.07 |  | 7.31 µM [falling, single point]
CCc1ccc(NC(=O)Nc2ccsc2C(=O)OC)cc1 | -31.7 | 32.6 µM [falling, single point] | 29.1 µM [rising, single point]
CCCn1c(NC(=O)c2ccc([N+](=O)[O-])o2)nc2ccccc21 |  |  | 7.31 µM [falling, partial curve]
COc1ccc(CCNC(=O)COC(=O)c2cccs2)cc1 | 2.5 |  | 
Cc1cc(OC(=O)N2CCOCC2)cc(C)c1Cl | 4.18 |  | 6.51 µM [falling, partial curve, poor fit]
COC(=O)[C@@H](NC(=O)c1cc(COc2cncc(Cl)c2)on1)c1ccccc1 | 7.51 |  | 
CN1C2C(Br)CCCCN2c2ccc(F)cc2S1(=O)=O (centres undefined) | 3.85 |  | 29.1 µM [falling, single point]
CN1C(=O)C(c2nnc(Nc3cccc4ccccc34)s2)C2CC1(C)Oc1ccccc12 (centres undefined) | 2.12 |  | 13 µM [falling, single point]
COC(=O)C1(CC2CC(c3ccc(Cl)cc3)=NO2)CCN(C(=O)OC(C)(C)C)CC1 (centres undefined) | -27.1 |  | 6.51 µM [falling, single point]
O=C(CSC1CC(=O)N(c2ccc(C(=O)O)cc2)C1=O)Nc1ccc(Cl)cc1 (centres undefined) | -1.55 | 0.731 µM [falling, single point] | 
Cc1cc2ccccn2c1C(=O)c1ccccc1F | 29.1 |  | 0.651 µM [falling, partial curve, poor fit]
O=S1(=O)[C@H]2C[C@@H]3C=C[C@@]2(CN1Cc1cccc(F)c1)O3 | 9.71 |  | 
Cn1c(=NC(=O)c2ccccc2[N+](=O)[O-])sc2cc(S(C)(=O)=O)ccc21 | -36 | 2.06 µM [falling, full curve] | 2.91 µM [falling, full curve, poor fit]
Fc1ccc2nc(-c3ccccc3)nc(SCc3nnc(-c4ccccc4)o3)c2c1 | -12.3 |  | 2.59 µM [rising, single point]
CSC(=NC#N)N1CCN(c2ccccn2)CC1 | -26.3 |  | 20.6 µM [falling, single point]
CC(C)(C)c1ccc(S(=O)(=O)NCC(=O)Nc2ccc(-c3nc4ccccc4s3)cc2)cc1 | -10.2 |  | 
Cc1cc(N)n(-c2ncnc3scc(-c4ccccc4)c23)n1 | 39.1 | 25.9 µM [rising, partial curve] | 3.66 µM [rising, partial curve]
Cc1ccc(OCC(O)Cn2c3ccccc3c3ccccc32)cc1 (centres undefined) | -66.5 | 6.51 µM [falling, full curve] | 3.66 µM [falling, full curve]

From PubChem BioAssay AID2685 (National Center for Advancing Translational Sciences (NCATS), 2010)
